Source: PMC8472134
Results are given in words; binding and its absence hold for the method and conditions named. Some results given as binding are weak or reduced against the parent protein; the word gives no strength. Tags and fused reporters may be left off the sequences shown.

T1: N-Myc Downregulated like 1 (NDL1) (Arabidopsis) (UniProt Q9FJT7)
T1 sequence: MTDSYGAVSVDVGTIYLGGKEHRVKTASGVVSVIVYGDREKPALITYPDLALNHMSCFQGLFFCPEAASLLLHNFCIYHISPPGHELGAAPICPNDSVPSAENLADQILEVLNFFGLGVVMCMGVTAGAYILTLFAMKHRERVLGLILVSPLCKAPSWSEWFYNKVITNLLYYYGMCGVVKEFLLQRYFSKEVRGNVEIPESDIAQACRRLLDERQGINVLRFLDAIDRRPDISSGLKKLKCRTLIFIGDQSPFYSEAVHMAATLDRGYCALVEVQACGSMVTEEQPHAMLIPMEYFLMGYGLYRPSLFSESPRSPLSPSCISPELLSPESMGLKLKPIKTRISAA

B1: ANNAT1 (protein, UniProt Q9SYT0 1-317)
chain: MATLKVSDSVPAPSDDAEQLRTAFEGWGTNEDLIISILAHRSAEQRKVIRQAYHETYGEDLLKTLDKELSNDFERAILLWTLEPGERDALLANEATKRWTSSNQVLMEVACTRTSTQLLHARQAYHARYKKSLEEDVAHHTTGDFRKLLVSLVTSYRYEGDEVNMTLAKQEAKLVHEKIKDKHYNDEDVIRILSTRSKAQINATFNRYQDDHGEEILKSLEEGDDDDKFLALLRSTIQCLTRPELYFVDVLRSAINKTGTDEGALTRIVTTRAEIDLKVIGEEYQRRNSIPLEKAITKDTRGDYEKMLVALLGEDDA
B2: IDH-V (protein, UniProt Q945K7 1-374)
chain: MTMAANLARRLIGNRSTQILGAVNSSSGAASSVARAFCSSTTPITATLFPGDGIGPEIAESVKKVFTTAGVPIEWEEHYVGTEIDPRTQSFLTWESLESVRRNKVGLKGPMATPIGKGHRSLNLTLRKELNLYANVRPCYSLPGYKTRYDDVDLITIRENTEGEYSGLEHQVVRGVVESLKIITRQASLRVAEYAFLYAKTHGRERVSAIHKANIMQKTDGLFLKCCREVAEKYPEITYEEVVIDNCCMMLVKNPALFDVLVMPNLYGDIISDLCAGLVGGLGLTPSCNIGEDGVALAEAVHGSAPDIAGKNLANPTALLLSGVMMLRHLKFNEQAEQIHSAIINTIAEGKYRTADLGGSSTTTEFTKAICDHL

Target: T1, N-Myc Downregulated like 1 (NDL1) (Arabidopsis)
Experiment: two-hybrid; Gal4-based two-hybrid in yeast AH109; NDL1 with Gal4 DNA-binding domain (pAS-attR), partner with Gal4 activation domain (pACTGW-attR); double transformants on SD/-Leu/-Trp; colony-lift filter beta-galactosidase assay with X-gal, 14-16 h at 30 °C, blue colonies scored positive; NDL1 alone as negative control

Binder	binding
B1	binds
B2	binds
